From US10172951B2, “Dendrimer based nanodevices for therapeutic and imaging purposes” (priority 2009, dated 2019)
Some of these results come from one statement about several compounds together.

Legend:
Type in all cases: cell-based, mouse
[1] = test system: BV-2 cells; test: ROS assay (H2O2, Amplex Red), PEG-NAC conjugates; conditions: highest concentration 5 mM
Procedure: (§1) (A) BV-2 cells (passage 22) were co-treated with 100 ng/mL of LPS and the indicated concentration of NAC, PEG-NAC conjugate 1 and its corresponding PEG for 72 hours. (B) BV-2 cells were co-treated with 100 ng/mL of LPS and the indicated concentration of NAC, PEG-NAC conjugate 2 and its corresponding PEG for 72 hours. The amount of ROS released into the media was measured using Amplex Red.
H2O2 released from BV-2 cells was measured using 10-acetyl-3,7-dihydroxyphenoxazine (Amplex Red), following the manufacturer's instructions. Briefly, the procedure for cell culture and drug treatment was the same as described in previous section. The supernatant was mixed with 0.05 U/mL of horseradish peroxidase and 1 μM of Amplex Red in 96-well plates. After 30 min incubation, the fluorescence intensity was measured using spectrofluorometry. Excitation and emission wavelengths were 530 nm and 590 nm.

[2] = test system: BV-2 cells; test: NO release assay (nitrite, Griess), PEG-NAC conjugates; conditions: highest concentration 5 mM
Procedure: as §1, with “2” for “2 and”, “Nitrite in culture medium” for “The amount of ROS released into the media”, “Griess reagent system.” for “Amplex Red.”
Production of NO was assayed by measuring the levels of nitrite, the stable NO metabolite, in supernatant. Accumulation of nitrite in supernatant was determined by colorimetric assay with Griess reagent system, which uses sulfanilamide and N-(1-Naphthyl)-ethylene diamine. 100 μL of the supernatant was incubated with 50 μL of Griess reagent 1 (sulfanilamide) and 50 μL of Griess reagent 2 N-(1-Naphthyl)-ethylenediamine for 10 min at room temperature. The absorbance at 540 nm was then measured, and nitrite concentration was determined using a curve calibrated with nitrite standards.

[3] = test system: BV-2 cells; test: Detection of nitrite production in LPS-activated BV-2 cells (Example 20); conditions: lowest concentration (0.5 mM NAC equivalent)

Substance | reduction of H2O2 levels [1] | reduction of nitrite levels [2] | suppression of nitrite production [3]
6 Arm-PEG-S—S-NAC Conjugate [6-arm-PEG-S—S-NAC] | more than 70% | more than 70% | 
8 Arm-PEG-S—S-NAC Conjugate [8-arm-PEG-S—S-NAC] | more than 70% | more than 70% | 
PAMAM-CO-GS—S-NAC [PAMAM-(COOH)46-(NAC)18] |  |  | > 60%
PAMAM-NH—CO-Ethyl-S—S-NAC [PAMAM-S—S-NAC] |  |  | > 60%
